We go through 2 molecules from article PMC6318328, “Structural insights into trans-histone regulation of H3K4 methylation by unique histone H4 binding of MLL3/4” (Nature Communications, 2019).

No constants are given. Whether binding was seen depends on the method and setting.

For assay [1], the target named is MLL3_(PHD6)_(1085–1144) (human) (UniProt Q8NEZ4). As to the kind of experiment: SEC; gel-filtration profiles of the purified domains (Supplementary Fig. 3); both purified. (Size exclusion chromatography separates by hydrodynamic size, large species first.)
Assay [2] concerns the target T1, MLL3_(ePHD6)_(1055–1144) (human) (UniProt Q8NEZ4).
T1 sequence: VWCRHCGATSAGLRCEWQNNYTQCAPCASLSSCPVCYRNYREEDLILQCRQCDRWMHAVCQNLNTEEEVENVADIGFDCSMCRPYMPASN
Kind of assay: crystal structure; MLL3 ePHD6 mixed with histone H4 peptide (residues 1–20) at a molar ratio 1:3; sitting drop, 18 °C; 2 M sodium formate, 0.1 M Tris pH 8.5; 1.80 Å; both purified.

The target in assay [3] is T1, MLL3_(ePHD6)_(1055–1144) (human). As to the kind of experiment: SEC; gel-filtration profiles of the purified domains (Supplementary Fig. 3); both purified.

B1: MLL3_(PHD6)_(1085–1144) (domain or fragment, UniProt Q8NEZ4 1085-1144)
chain: SSCPVCYRNYREEDLILQCRQCDRWMHAVCQNLNTEEEVENVADIGFDCSMCRPYMPASN
Take B1: the binding result in assay [1] was “no binding”.

B2: MLL3_(ePHD6)_(1055–1144) (domain or fragment, UniProt Q8NEZ4 1055-1144)
chain: VWCRHCGATSAGLRCEWQNNYTQCAPCASLSSCPVCYRNYREEDLILQCRQCDRWMHAVCQNLNTEEEVENVADIGFDCSMCRPYMPASN
For B2, the binding result in assay [2] and in assay [3] was “no binding” throughout.
